Measured values published in patent US20170002074A1.

Legend:
[1] = molecular target: Cynomolgus monkey CD33 (cynomolgus monkey); assay: FACS of cynomolgus blood, endogenous CD33 on CD14+/CD33+ myeloid cells
[2] = molecular target: Cynomolgus monkey CD33 (cynomolgus monkey); assay: FACS on HEK293AD cells stably expressing recombinant cynoCD33, fluorescent anti-IgG secondary
[3] = molecular target: Cynomolgus monkey CD33 (cynomolgus monkey); assay: FACS, stable cell line expressing recombinant cynomolgus monkey CD33
[4] = molecular target: Cynomolgus monkey CD33 (cynomolgus monkey); assay: FACS, HEK293AD cells stably expressing cynomolgus CD33

Measured: binding

B1: 27C6 (antibody, V domains shown)
VH: EVQLQQSGPELVKPGASVKVSCKASGYAFTSYNMYWVKQSHGKSLEWIGYIDPYNGGTRHNQKFKDKATLTVDKSSSTAYMHLNSLTSEDSAVYYCASQNYEYFDYWGQGTTLTVSS
VL: DIVLTQSPKFMSTSVGDRVSITCKASQDVGDAVAWYQQKPGQSPKLLFYWTSTRHTGVPDRFTGSGSGTEFTLTIRNVQSEDLADYFCQQYRSTPLTFGSGTKVEIK
binds: all assays above

Results are given in words; binding and its absence hold for the method and conditions named. Binding calls can cover weak binding; strength is not graded here.
